From paper PMC7210770
Results are given in words; binding and its absence hold for the method and conditions named. A result given as binding can be weak or reduced; the word gives no strength. For some assays here: Binding seen in cells or lysates may run through a third protein. Values belong to the molecule of their own block, whether it stands above or below them.

Amino acid sequences for entries named in this document (tags omitted). A change or cut given only in a name is not applied to a line headed by its entry.
UniProt Q38998: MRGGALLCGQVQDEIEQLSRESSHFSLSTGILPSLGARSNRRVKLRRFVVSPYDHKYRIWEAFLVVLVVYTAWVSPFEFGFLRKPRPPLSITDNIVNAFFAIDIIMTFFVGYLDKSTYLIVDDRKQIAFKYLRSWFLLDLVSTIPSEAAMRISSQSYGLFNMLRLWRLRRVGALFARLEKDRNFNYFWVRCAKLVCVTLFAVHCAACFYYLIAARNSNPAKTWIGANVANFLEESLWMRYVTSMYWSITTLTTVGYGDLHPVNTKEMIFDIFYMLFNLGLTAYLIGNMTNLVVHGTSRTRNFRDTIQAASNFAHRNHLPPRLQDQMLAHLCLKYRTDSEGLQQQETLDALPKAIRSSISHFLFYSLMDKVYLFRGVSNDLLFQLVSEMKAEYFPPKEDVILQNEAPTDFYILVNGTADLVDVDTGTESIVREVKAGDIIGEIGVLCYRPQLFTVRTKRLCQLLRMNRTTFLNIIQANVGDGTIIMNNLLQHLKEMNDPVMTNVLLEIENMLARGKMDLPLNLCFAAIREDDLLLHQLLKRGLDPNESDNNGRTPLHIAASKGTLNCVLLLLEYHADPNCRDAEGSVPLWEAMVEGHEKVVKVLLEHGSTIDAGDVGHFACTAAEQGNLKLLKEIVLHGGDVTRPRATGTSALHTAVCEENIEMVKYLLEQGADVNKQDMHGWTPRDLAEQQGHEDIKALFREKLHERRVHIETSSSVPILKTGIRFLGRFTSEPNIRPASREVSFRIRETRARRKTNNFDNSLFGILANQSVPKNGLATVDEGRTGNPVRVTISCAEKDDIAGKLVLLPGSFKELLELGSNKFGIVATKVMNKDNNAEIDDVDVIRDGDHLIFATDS

How the values were obtained:
[1] = molecular target: T1, CIPK25ΔC (kinase domain of CIPK25), yeast two-hybrid construct in pDEST32 (Arabidopsis thaliana (amplified from Col-0 genomic DNA)) (UniProt Q8W1D5); experiment: two-hybrid; yeast MaV203, pDEST32 / pDEST22; interaction screened on SD-LTUH + 15 mM 3AT and by X-gal staining; empty vectors as negative controls
T1 sequence: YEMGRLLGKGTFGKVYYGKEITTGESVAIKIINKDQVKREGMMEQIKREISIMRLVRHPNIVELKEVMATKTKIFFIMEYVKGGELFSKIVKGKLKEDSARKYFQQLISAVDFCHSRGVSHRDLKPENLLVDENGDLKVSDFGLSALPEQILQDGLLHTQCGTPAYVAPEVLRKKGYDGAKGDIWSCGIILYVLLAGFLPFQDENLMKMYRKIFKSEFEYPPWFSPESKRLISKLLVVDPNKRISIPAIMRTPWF

[2] = molecular target: C-terminal cytosolic domain of AKT1 (AKT1c), BiFC construct in pDH51-GW-YFPN (Arabidopsis) (UniProt Q38998); experiment: split reporter; BiFC with split YFP (pDH51-GW-YFPC / pDH51-GW-YFPN) co-transfected into Arabidopsis mesophyll protoplasts, 16 h at 25 °C in the dark, confocal microscopy; empty vectors as negative controls

- binding [1]: binds
Molecule: C-terminal cytosolic domain of AKT1 (AKT1c), yeast two-hybrid construct in pDEST22 (from UniProt Q38998) (domain or fragment)

- binding [2]: binds
B1: CIPK25ΔC (kinase domain of CIPK25, lacking the C-terminal domain), BiFC construct in pDH51-GW-YFPC (domain or fragment, UniProt Q8W1D5 43-297)
chain: T1 sequence
